According to publication PMC3563580:
No constants are given. Whether binding was seen depends on the method and setting. In cells and extracts the contact can be indirect. Binding can be weak; no strength is given.

Protein sequences, listed by entry. Tags and fused reporters are not part of them. Lines headed by an entry give the natural chain unless they say otherwise; changes in a name come on top.
UniProt Q9HCU9: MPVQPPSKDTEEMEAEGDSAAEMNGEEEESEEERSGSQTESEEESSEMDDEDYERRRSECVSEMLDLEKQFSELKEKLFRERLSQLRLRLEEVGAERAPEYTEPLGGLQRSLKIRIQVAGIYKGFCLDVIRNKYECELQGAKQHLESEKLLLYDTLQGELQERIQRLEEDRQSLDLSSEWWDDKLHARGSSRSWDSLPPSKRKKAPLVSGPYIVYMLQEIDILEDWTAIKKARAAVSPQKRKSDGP

Columns and labels:
[1] = target: T1, SIN3A, endogenous (human (endogenous in MDA-MB-231, MCF10A and MCF10CAa.1)) (UniProt Q96ST3); test: co-IP; SIN3A immunoprecipitated with a polyclonal SIN3A antibody from nuclear fractions (NE-PER kit) of MDA-MB-231 cells and derivatives; blot probed for BRMS1 (3a1.21)
T1 sequence: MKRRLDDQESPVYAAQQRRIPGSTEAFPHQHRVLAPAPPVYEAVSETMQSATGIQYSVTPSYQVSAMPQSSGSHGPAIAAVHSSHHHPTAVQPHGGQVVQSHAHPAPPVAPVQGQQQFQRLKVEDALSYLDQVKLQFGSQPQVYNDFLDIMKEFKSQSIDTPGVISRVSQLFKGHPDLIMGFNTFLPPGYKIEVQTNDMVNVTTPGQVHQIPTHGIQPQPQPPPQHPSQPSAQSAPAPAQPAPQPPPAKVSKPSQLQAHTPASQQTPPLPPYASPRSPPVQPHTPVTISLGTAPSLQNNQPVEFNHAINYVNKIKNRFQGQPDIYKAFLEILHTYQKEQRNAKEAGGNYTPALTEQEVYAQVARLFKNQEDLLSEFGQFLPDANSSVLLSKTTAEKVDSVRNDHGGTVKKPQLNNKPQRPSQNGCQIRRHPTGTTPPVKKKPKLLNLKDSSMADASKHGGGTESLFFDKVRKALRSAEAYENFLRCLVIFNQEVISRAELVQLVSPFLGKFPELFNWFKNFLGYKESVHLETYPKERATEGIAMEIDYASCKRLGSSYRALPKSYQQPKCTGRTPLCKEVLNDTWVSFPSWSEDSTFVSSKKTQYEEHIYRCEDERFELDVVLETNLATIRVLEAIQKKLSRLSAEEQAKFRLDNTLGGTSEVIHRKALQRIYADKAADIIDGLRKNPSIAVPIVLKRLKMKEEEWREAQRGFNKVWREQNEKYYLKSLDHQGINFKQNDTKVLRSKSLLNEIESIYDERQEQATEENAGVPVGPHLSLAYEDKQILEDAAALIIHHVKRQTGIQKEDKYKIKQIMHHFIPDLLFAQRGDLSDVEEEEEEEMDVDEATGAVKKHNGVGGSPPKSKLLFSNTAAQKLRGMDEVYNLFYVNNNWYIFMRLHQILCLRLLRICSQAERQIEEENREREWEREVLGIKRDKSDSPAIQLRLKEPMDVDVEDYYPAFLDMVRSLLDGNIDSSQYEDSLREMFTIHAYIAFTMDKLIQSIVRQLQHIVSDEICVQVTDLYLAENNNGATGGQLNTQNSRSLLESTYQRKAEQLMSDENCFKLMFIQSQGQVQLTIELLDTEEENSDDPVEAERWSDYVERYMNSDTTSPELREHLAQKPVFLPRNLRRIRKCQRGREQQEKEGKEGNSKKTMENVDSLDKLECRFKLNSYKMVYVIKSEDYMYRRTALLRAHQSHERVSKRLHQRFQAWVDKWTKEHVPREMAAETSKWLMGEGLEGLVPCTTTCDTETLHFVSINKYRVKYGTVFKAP

[2] = target: T1, SIN3A, endogenous (human (endogenous in MDA-MB-231, MCF10A and MCF10CAa.1)); test: co-IP; SIN3A immunoprecipitated with a polyclonal SIN3A antibody from cytoplasmic fractions (NE-PER kit) of MDA-MB-231 cells and derivatives; blot probed for BRMS1 (3a1.21)

In the case of “BRMS1 mutant NLS2,2 (replacement of NLS1 with NLS2) (from UniProt Q9HCU9)”, the binding [1] is reported as “binds” and the binding [2] is reported as “binds”.
With “BRMS1 mutant NLS1,1 (replacement of NLS2 with NLS1) (from UniProt Q9HCU9)” the binding [1] was “binds” and the binding [2] was “no binding (only in cytoplasmic fractions)”.
